Laboratory results reported in PubChem BioAssay AID504834 (National Center for Advancing Translational Sciences (NCATS), 2011).
The whole screen tested about 320,000 compounds, of which about 22,000 (6.9%) were called active. Inconclusive means that the source gave no clear call. Such entries were picked first, then a sample of the others. The call rests on the fitted dose curve; in most records, active means well fitted inhibition curve with a large enough effect; inconclusive means small, poorly fitted or top-dose-only effect, or another doubt; inactive means no such curve, though single readings can be large or run the other way. Where the call is inconclusive, the potency comes from a doubtful curve fit. Where a structure was tested more than once in an assay, its records may differ in their call.
Potency means the concentration at half of the fitted maximal effect.

Assay: Primary qHTS for delayed death inhibitors of the malarial parasite plastid, 96 hour incubation
Details: P. falciparum luciferase reporter growth; series mostly up to 28.7 µM
How it was run: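 Cell-based qHTS: luciferase-tagged P. falciparum in erythrocytes (2% hematocrit, 0.05% parasitemia final) incubated with compounds for 96 hours, 37 C, 5% CO2; luciferase detection reagent then added and luminescence measured.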
For O=C(Nc1ccc(Nc2ccccc2)cc1)c1ccc(Cl)c([N+](=O)[O-])c1, the Potency was inconclusive: 9.28 µM [inhibitor, partial curve, poor fit].
In the case of Cc1ccc(OCCn2cnc3c(N)ncnc32)cc1, the Potency is reported as inconclusive: 16.5 µM [inhibitor, partial curve, poor fit].
For COc1ccc(CCNC(=O)CC2Nc3ccccc3NC2=O)cc1 (stereo unspecified), the Potency was inconclusive: 18.5 µM [inhibitor, single point].
For CC(=O)N1c2ccccc2[C@H](C)[C@H]1C, the Potency was inconclusive: 16.5 µM [inhibitor, single point].
For CCOc1cc(N2CCOCC2)c(OCC)cc1NC(=O)Cc1cccc2ccccc12, the Potency was inconclusive: 5.86 µM [inhibitor, partial curve, poor fit].
For CCOc1ccc(Nc2cc(C)c3ccccc3n2)cc1, the Potency was inconclusive: 18.5 µM [inhibitor, single point].
With C/C(=N\NC(=O)c1nnn(-c2nonc2N)c1-c1ccccc1)c1ccccc1O the Potency was inconclusive: 5.86 µM [inhibitor, partial curve].
For Cc1ccccc1C(=O)O/N=C(\N)c1ccccc1, the Potency was “inactive”.
In the case of Cc1cccc(NC(=O)c2cc3ccccc3o2)c1, the Potency is reported as “inactive”.
In the case of CSc1nnc(C)c(=O)n1COC(=O)c1ccc(S(=O)(=O)N(C)C)cc1, the Potency is reported as inconclusive: 18.5 µM [inhibitor, single point].
For O=C(O)c1ccccc1C(=O)NCCc1ccc(Cl)cc1, the Potency was inconclusive: 10.4 µM [inhibitor, partial curve, poor fit].
In the case of CC1CCN(c2ccc(NC(=O)C3CCCN3S(=O)(=O)c3ccc(F)cc3)cc2)CC1 (stereo unspecified), the Potency is reported as active: 11.7 µM.
In the case of CCOc1ccc(S(=O)(=O)N2CCC(C(=O)NCc3ccncc3)CC2)cc1, the Potency is reported as inconclusive: 10.4 µM [inhibitor, single point].
With O=C1NC(=S)N/C1=C/c1cc([N+](=O)[O-])ccc1O the Potency was “inactive”.
In the case of CCN(CC(=O)Nc1ccccc1C(F)(F)F)C(=O)c1ccccc1SCC(=O)N1CCCC1, the Potency is reported as inconclusive: 1.47 µM [inhibitor, partial curve, poor fit].
In the case of COc1ccccc1NC(=O)Nc1nnc(-c2ccco2)s1, the Potency is reported as “inactive”.
For COc1ccccc1CNS(=O)(=O)c1ccc2c(c1)NC(=O)CS2, the Potency was inconclusive: 5.22 µM [inhibitor, partial curve, poor fit].
In the case of CCOC(=O)C1(Cc2cccc(OC)c2)CCN(Cc2cccc(OCC)c2O)CC1, the Potency is reported as “inactive”.
In the case of CSc1nsc(SC)c1C(=O)OCC(F)(F)F, the Potency is reported as inconclusive: 10.4 µM [inhibitor, partial curve].
For Cc1ccc(NC(=S)NCc2ccccc2)cc1S(=O)(=O)N1CCCCC1, the Potency was inconclusive: 10.4 µM [inhibitor, single point].
With CN(C)S(=O)(=O)c1cccc(C(=O)Nc2ccc(Cl)cn2)c1 the Potency was inconclusive: 10.4 µM [inhibitor, partial curve, poor fit].
With O=C(CSc1n[nH]c(-c2ccco2)n1)Nc1ccc(Br)cc1 the Potency was inconclusive: 14.7 µM [inhibitor, partial curve, poor fit].
With CSCCC1NC2(C(=O)Nc3c(C)cc(Cl)cc32)[C@@H]2C(=O)N(C3CCCC3)C(=O)[C@H]12 (stereo partly specified) the Potency was inconclusive: 13.1 µM [inhibitor, partial curve].
With CCCc1ccc(OCCNC(=O)c2ccco2)cc1 the Potency was inconclusive: 16.5 µM [inhibitor, partial curve].
For O=C(CCCn1c(=S)[nH]c2ccccc2c1=O)N1CCN(c2cccc(Cl)c2)CC1, the Potency was inconclusive: 4.15 µM [inhibitor, single point].
With CCc1cccc(NC(=S)Nc2cccc3ccccc23)c1 the Potency was “inactive”.
For COC(=O)c1cc(OC)c(OC)c(OC)c1N, the Potency was inconclusive: 18.5 µM [inhibitor, single point].
For Cc1cc(C)n2nc(/C(C#N)=C/c3ccccn3)c(C#N)c2n1, the Potency was inconclusive: 14.7 µM [inhibitor, partial curve, poor fit].
In the case of CC(=O)Nc1c2c(nn1-c1cccc(C)c1)CSC2, the Potency is reported as “inactive”.
For COc1ccc(C(=O)NNC(=O)Cc2ccc(-c3ccccc3)cc2)cc1OC, the Potency was “inactive”.
In the case of Cc1ccc([N+](=O)[O-])cc1NC(=O)CSc1nncc2ccccc12, the Potency is reported as “inactive”.
In the case of CCn1cc(-c2ccccc2)c(C(=O)O)c1-c1ccc(OC)cc1, the Potency is reported as “inactive”.
For COc1ccc(S(=O)(=O)N2CCCCC2)cc1NC(=O)Cn1cnc2ccccc2c1=O, the Potency was inconclusive: 10.4 µM [inhibitor, single point].
With CCn1c2ccccc2c2cc(/C=N/NC(=O)c3cc(O)cc(O)c3)ccc21 the Potency was “inactive”.
In the case of O=C(NCC1CCCO1)c1sc(=S)n2c1[nH]c(=O)c1ccc(C(=O)N3CCCCC3)cc12 (stereo unspecified), the Potency is reported as inconclusive: 18.5 µM [inhibitor, single point].
For CN(C)c1nc(Cl)nc(N(C#N)CCOc2ccccc2)n1, the Potency was “inactive”.
For CC(=O)c1cccc(NC(=O)Cn2c(=O)oc3cc(S(=O)(=O)N4CCCC4)ccc32)c1, the Potency was “inactive”.
In the case of CCC1(C)Cc2nc3sc(C(=O)O)c(N)c3cc2CO1 (stereo unspecified), the Potency is reported as inconclusive: 11.7 µM [inhibitor, partial curve, poor fit].
In the case of CC1=NN(c2ccccc2)C(=O)C1(C)C, the Potency is reported as active: 9.28 µM.
With c1ccc(CN(CC2=NCCN2)c2ccccc2)cc1 the Potency was active: 11.7 µM.
For Cc1ccc(C)c(NC(=O)C2C3C=CC(O3)C2C(=O)O)c1 (stereo unspecified), the Potency was inconclusive: 8.28 µM [inhibitor, partial curve, poor fit].
For CC1CCC(=O)N(CCC#N)CC1 (stereo unspecified), the Potency was “inactive”.
With CCOc1cc(/C=C2\N=C(C)OC2=O)cc(Br)c1OCC(=O)OC the Potency was inconclusive: 0.828 µM [inhibitor, full curve].
With Nc1c(C(=O)N/N=C/c2cccnc2)oc2nc(-c3ccco3)cc(-c3ccco3)c12 the Potency was inconclusive: 7.38 µM [inhibitor, single point].
In the case of O=C(NC(=O)N1CCCCC1)c1ccc(Cl)cc1, the Potency is reported as inconclusive: 10.4 µM [inhibitor, single point].
In the case of Clc1nc(CN2CCCCC2)nc2sc3c(c12)CCCC3, the Potency is reported as inconclusive: 0.928 µM [inhibitor, full curve, poor fit].
